At least one structure is not confirmed: it was looked up by name or label, or the drawing left a doubt. Some results were stated once for a whole list of compounds, not compound by compound.
What was measured:
[1] = tested on: Burkholderia cepacia ATCC 17759; experiment: MIC, agar dilution method; type: cell-based
Description: (§1) The formulations prepared according to Examples 11, 12 and 13, were used to evaluate the Minimal Inhibitory Concentration (MIC) required to inhibit the growth of the following organisms: Burkholderia cepacia, Haemophilus influenzae, and Pseudomonas aeruginosa, using the agar dilution method based on DIN 58940 and 58944 according to NCCLS (National Committee on Clinical Laboratory Standards) criteria. […] To determine MIC, Petri dishes containing Mueller-Hinton agar supplemented with agar-agar, or chocolate agar were prepared. Dilutions of the formulations prepared under Examples 11, 12, 13 and 14 were prepared in aqua purificata, resulting in solutions containing 1000 μg drug per ml (with exception of the formulation only containing levofloxacin, where a dilution containing 640 μg/ml was prepared). […] Two agar plates were poured for each test concentration and culture medium. After solidification and drying, the agar plates were inoculated with the test organisms and incubated as described in Table 7. [table] The MIC was given as the lowest concentration of the active substance at which there was no macroscopically visible growth. Minimal, barely visible growth or few small individual colonies were evaluated as inhibition. The MIC readings are generally subject to an error of up to two dilutions. […] For Haemophilus spp., it was defined that a breakpoint ≦4 μg/ml is classified as susceptible.

[2] = tested on: Haemophilus influenzae ATCC 49247; experiment: MIC, agar dilution method; type: cell-based
Description: as §1

SMILES | susceptibility classification [1] | susceptibility classification [2]
NC[C@H]1O[C@H](O[C@H]2[C@H](O)[C@@H](O[C@H]3O[C@H](CO)[C@@H](O)[C@H](N)[C@H]3O)[C@H](N)C[C@@H]2N)[C@H](N)C[C@@H]1O [Tobr., tobramycin] | resistant (≧8 μg/ml is resistant) | 
CC[C@H]1OC(=O)[C@H](C)[C@@H](O[C@H]2C[C@@](C)(OC)[C@@H](O)[C@H](C)O2)[C@H](C)[C@@H](O[C@@H]2O[C@H](C)C[C@H](N(C)C)[C@H]2O)[C@](C)(O)C[C@@H](C)CN(C)[C@H](C)[C@@H](O)[C@]1(C)O [Azi., azithromycin] | resistant (≧8 μg/ml is resistant) | 
C[C@H]1COc2c(N3CCN(C)CC3)c(F)cc3c(=O)c(C(=O)O)cn1c23 [Levo., levofloxacin] | intermediately susceptible to susceptible | intermediately susceptible to susceptible

— patent US20090232744A1, “Macrolide compositions having improved taste and stability” (priority 2008, published 2009)
